# Reference: patent publication US8449930B2, “Drug or dermatological composition containing an avocado peptide extract for treating and preventing pruritus” (Laboratoires Expanscience, priority 2008, dated 2013)
# At least one structure is not confirmed: it was looked up by name or label, or the drawing left a doubt.
# System: Normal human epidermal keratinocytes (NHEK)
# Assay: Synthesis of GAGs by keratinocytes (35S-sulfate incorporation)
# Assay type: cell-based
# Conditions: 0.1 μM retinoic acid, 72 hours
# Experimental: Normal human epidermal keratinocytes (NHEK) were pre-cultured for 24 hours at 37° C. and 5% CO2 in low-calcium (0.09 mM) SFM (Invitrogen) medium supplemented with 0.25 ng/ml EGF (Invitrogen), 25 μg/ml pituitary extract (Invitrogen) and 25 μg/ml gentamycin (Sigma).
# The keratinocytes were then treated for 72 hours with the avocado peptide extract (0.05% DM and 0.005% DM), according to example 1, or by the references: 0.1 μM retinoic acid (Sigma) or 1.5 mM calcium (Prolabo). Two identical series were prepared in order to assay both the release/production of hyaluronic acid and the incorporation of […] in the GAGs fraction. The batch corresponding to the assay of the GAGs was supplemented with ^35S-sulfate (Amersham) after 48 hours of culture (labeling during the last 24 hours).
# At the end of the treatment, in the batch corresponding to the assay of GAGs, the incorporated radioactivity was counted and thus the variation in the synthesis of GAGs in relation to the control was analyzed.
# Intergroup comparisons were carried out by analysis of variance using Dunnett's multiple comparison test.
smiles,measurement,value
CC1=C(/C=C/C(C)=C/C=C/C(C)=C/C(=O)O)C(C)(C)CCC1 [retinoic acid],Percentage (change in synthesis of GAGs vs control cells),does not significantly modify
